Results from US20230233650A1, “NOVEL FATTY ACID MODIFIED UROCORTIN 2 DERIVATIVES AND THE USES THEREOF” (Novo Nordisk A/S, priority 2021, published 2023).
For at least one compound, name, drawing or mass did not settle the structure. Numbered stars: 1 amine (or outer) side, 2 acyl side, 3 side chain; on linkers, the order of the positions; unused ones are H or OH. Side chains are listed from the residue outwards. Peptide text beside a SMILES is read from it. * marks the point of attachment. C20 diacid = O=C(O)CCCCCCCCCCCCCCCCCCC(=O)*; γGlu = O=C(O)[C@H](CCC(=O)[*:2])N[*:1]; AEEA = NCCOCCOCC(=O)O

Columns and labels:
[1] = system: diet-induced obese (DIO) rats; assay: Pharmacodynamic study in diet-induced obese (DIO) rats; format: in vivo, Male DIO Sprague Dawley rats; conditions: for Average daily food intake: day 1 to day 22
ad libitum fed rats = assay: Acute food intake reduction in ad libitum fed rats; format: in vivo, Sprague Dawley (SD) rats; conditions: single s.c. dose 100 nmol/kg
[2] = Study 1, 30 nmol/kg s.c. once daily
[3] = Study 1, 100 nmol/kg s.c. once daily
[4] = Study 1, 300 nmol/kg s.c. once daily
[5] = Study 2, 300 nmol/kg s.c. once daily, 4 h fast
[6] = Study 2, 300 nmol/kg s.c. once daily, OGTT 2 g glucose/kg p.o.

With CC[C@H](C)[C@H](NC(=O)[C@H](CCC(=O)O)NC(=O)[C@H](C)NC(=O)[C@H](CC(N)=O)NC(=O)[C@@H](NC(=O)[C@@H](NC(=O)[C@H](C)NC(=O)[C@H](CCC(N)=O)NC(=O)[C@H](CCC(=O)O)NC(=O)[C@H](CCCNC(=N)N)NC(=O)[C@H](C)NC(=O)[C@H](C)NC(=O)[C@H](CCCNC(=N)N)NC(=O)[C@H](C)NC(=O)[C@H](CCCNC(=N)N)NC(=O)[C@H](C)NC(=O)[C@H](CCC(N)=O)NC(=O)[C@H](CCC(=O)O)NC(=O)[C@H](CC(C)C)NC(=O)[C@H](CC(C)C)NC(=O)[C@@H](NC(=O)[C@H](CCC(N)=O)NC(=O)[C@H](CC(C)C)NC(=O)[C@H](CC(C)C)NC(=O)CNC(=O)[C@@H](NC(=O)[C@@H]1CCCN1C(=O)[C@@H](NC(=O)[C@H](CC(=O)O)NC(=O)[C@H](CC(C)C)NC(=O)[C@H](CO)NC(=O)[C@H](CC(C)C)NC(=O)[C@@H](NC(=O)[C@@H](NC(=O)[C@@H](N)CCCCNC(=O)COCCOCCNC(=O)COCCOCCNC(=O)CC[C@H](NC(=O)CC[C@H](NC(=O)CC[C@H](NC(=O)CCCCCCCCCCCCCCCCCCC(=O)O)C(=O)O)C(=O)O)C(=O)O)[C@@H](C)CC)C(C)C)C(C)C)[C@@H](C)CC)[C@@H](C)CC)[C@@H](C)O)[C@@H](C)O)C(=O)N[C@@H](CC(C)C)C(=O)N[C@@H](CCC(=O)O)C(=O)N[C@@H](CCCNC(=N)N)C(=O)N[C@H](C(N)=O)C(C)C [Compound 4] (H-K([AEEA-AEEA-γGlu-γGlu-γGlu-C20 diacid])IVLSLDVPIGLLQILLEQARARAAREQATTNAEILERV-NH2) the “BW change from baseline (%) (day 22)” value [1, 2] was -0.2%, the “Fat mass change from baseline” value [1, 2] was -35.5 g and the “Lean mass change from baseline” value [1, 2] was 29.7 g. The “Weight of the EDL muscle” value [1, 2] was 0.36 g, the “Average daily food intake” value [1, 2] was 17.7 g and the “BW change from baseline (%) (day 22)” value [1, 3] was -2.3%. The “Fat mass change from baseline” value [1, 3] was -42.6 g, the “Lean mass change from baseline” value [1, 3] was 12.8 g and the “Weight of the EDL muscle” value [1, 3] was 0.38 g. The “Average daily food intake” value [1, 3] was 15.9 g, the “BW change from baseline (%) (day 22)” value [1, 4] was -0.3% and the “Fat mass change from baseline” value [1, 4] was -45.9 g. For the same molecule, the “Lean mass change from baseline” value [1, 4] was 30.3 g, the “Weight of the EDL muscle” value [1, 4] was 0.35 g and the “Average daily food intake” value [1, 4] was 16.7 g. For the same molecule, the Fasting blood glucose [1, 5] was 5.0 mM, the Fasting plasma insulin [1, 5] was 299 pM and the “AUCglucose(0-180min)” value [1, 6] was 1053 mM·min. For the same molecule, the “AUCinsulin(0-180min)” value [1, 6] was 62685 pM·min, the “Acute food intake reduction relative to vehicle, Day 1 (0-24 h)” value (ad libitum fed rats) was -50% and the “Acute food intake reduction relative to vehicle, Day 2 (24-48 h)” value (ad libitum fed rats) was -43%.

For CC[C@H](C)[C@H](NC(=O)[C@H](CCC(=O)O)NC(=O)[C@H](C)NC(=O)[C@H](CC(N)=O)NC(=O)[C@@H](NC(=O)[C@@H](NC(=O)[C@H](C)NC(=O)[C@H](CCC(N)=O)NC(=O)[C@H](CCC(=O)O)NC(=O)[C@H](CCCNC(=N)N)NC(=O)[C@H](C)NC(=O)[C@H](C)NC(=O)[C@H](CCCNC(=N)N)NC(=O)[C@H](C)NC(=O)[C@H](CCCNC(=N)N)NC(=O)[C@H](C)NC(=O)[C@H](CCC(N)=O)NC(=O)[C@H](CCC(=O)O)NC(=O)[C@H](CC(C)C)NC(=O)[C@H](CC(C)C)NC(=O)[C@@H](NC(=O)[C@H](CCC(N)=O)NC(=O)[C@H](CC(C)C)NC(=O)[C@H](CC(C)C)NC(=O)CNC(=O)[C@@H](NC(=O)[C@@H]1CCCN1C(=O)[C@@H](NC(=O)[C@H](CC(=O)O)NC(=O)[C@H](CC(C)C)NC(=O)[C@H](CO)NC(=O)[C@H](CC(C)C)NC(=O)[C@@H](NC(=O)[C@@H](NC(=O)[C@@H](N)CCCCNC(=O)COCCOCCNC(=O)COCCOCCNC(=O)CC[C@H](NC(=O)CC[C@H](NC(=O)CC[C@H](NC(=O)CCCCCCCCCCCCCCCCCCC(=O)O)C(=O)O)C(=O)O)C(=O)O)[C@@H](C)CC)C(C)C)C(C)C)[C@@H](C)CC)[C@@H](C)CC)[C@@H](C)O)[C@@H](C)O)C(=O)N[C@@H](CC(C)C)C(=O)N[C@@H](C)C(=O)N[C@@H](CCC(=O)O)C(=O)N[C@H](C(N)=O)C(C)C [Compound 3] (H-K([AEEA-AEEA-γGlu-γGlu-γGlu-C20 diacid])IVLSLDVPIGLLQILLEQARARAAREQATTNAEILAEV-NH2), the “Acute food intake reduction relative to vehicle, Day 1 (0-24 h)” value (ad libitum fed rats) was -35% and the “Acute food intake reduction relative to vehicle, Day 2 (24-48 h)” value (ad libitum fed rats) was -38%.
